Data taken from patent US7230011B2, “Benzenesulfonic acid indol-5-yl esters as antagonists of the 5ht6 receptor” (Eli Lilly and Company, priority 2002, dated 2007).

System: Male Sprague-Dawley rats
Conditions: s.c. immediately after the sampling phase, three-hour delay

CN1[C@@H]2C[C@@H](OC(=O)[C@H](CO)c3ccccc3)C[C@H]1[C@@H]1O[C@@H]12 [Scopolamine, scopolamine] was tested, and the retention was “disrupted retention”.
